In ChEMBL document CHEMBL2169886 (J Med Chem, 2012):

Assay: physchem
Details: buffer, pH 7.4

Structure (SMILES): N[C@@H]1CCN(c2cnc3nnn(Cc4ccc5ncccc5c4)c3n2)C1
- logD: 0.86
